Experimental data as given in article PMC4274898.
Results are given in words; binding and its absence hold for the method and conditions named.

The chains behind the UniProt entries cited, without tags or fusion partners. Where a name states a change or a piece, a line headed by the entry shows the natural chain unless it says otherwise.
UniProt Q9FX25: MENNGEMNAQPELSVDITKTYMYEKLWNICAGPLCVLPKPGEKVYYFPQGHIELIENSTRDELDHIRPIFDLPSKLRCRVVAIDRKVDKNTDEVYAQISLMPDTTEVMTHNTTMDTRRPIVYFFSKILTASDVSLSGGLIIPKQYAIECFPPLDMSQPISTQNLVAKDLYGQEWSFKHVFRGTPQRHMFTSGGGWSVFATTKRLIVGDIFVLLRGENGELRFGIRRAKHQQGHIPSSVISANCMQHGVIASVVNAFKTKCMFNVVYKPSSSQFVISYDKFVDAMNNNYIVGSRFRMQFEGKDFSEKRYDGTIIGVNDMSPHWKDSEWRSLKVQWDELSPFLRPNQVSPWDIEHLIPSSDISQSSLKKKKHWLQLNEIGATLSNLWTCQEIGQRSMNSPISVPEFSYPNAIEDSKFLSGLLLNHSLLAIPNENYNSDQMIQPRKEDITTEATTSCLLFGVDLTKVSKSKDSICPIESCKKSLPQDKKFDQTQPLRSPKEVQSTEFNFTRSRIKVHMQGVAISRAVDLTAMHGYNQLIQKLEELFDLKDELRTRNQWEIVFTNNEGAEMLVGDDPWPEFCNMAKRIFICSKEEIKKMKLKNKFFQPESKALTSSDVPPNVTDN

Target: ARF13 (Arabidopsis thaliana) (UniProt Q9FX25)
Assay: two-hybrid; S. cerevisiae AH109 co-transformed with pGBKT7-ARF (bait) and pGADT7-Aux/IAA (prey); growth on SD/-Ade-His-Leu-Trp against SD/-Leu/-Trp; at least 10 independent colonies; serial dilutions for strength

| Binder | binding |
| --- | --- |
| Aux/IAA10 (protein, UniProt Q38828 1-261) MNGLQEVCSSSGSVMIGLPAEEDENAAHSSEDSSCPDESVSETELDLALGLSIGRRKVRSSLSSSSSSLTRESGTKRSADSSPAAASNATRQVAVGWPPLRTYRINSLVNQAKSLATEGGLSSGIQKETTKSVVVAAKNDDACFIKSSRTSMLVKVTMDGVIIGRKVDLNALDSYAALEKTLDLMFFQIPSPVTRSNTQGYKTIKETCTSKLLDGSSEYIITYQDKDGDWMLVGDVPWQMFLGSVTRLRIMKTSIGAGVGK | no binding |
| Aux/IAA11 (protein, UniProt Q38829 1-246) MEGGSASGSASALSNDENLVVSCEDSSSPIGNELELGLTLSLGRKGYRDCRVYADDSSSSSSSSSLSRASVIAGIKRTADSMAATSGQVVGWPPIRTYRMNSMVNQAKASATEDPNLEISQAVNKNRSDSTKMRNSMFVKVTMDGIPIGRKIDLNAHKCYESLSNTLEEMFLKPKLGSRTLETDGHMETPVKILPDGSSGLVLTYEDKEGDWMLVGDVPWGMFIGSVRRLRIMKTSEATGKAQMIL | no binding |

Other lines, results leading:

| binding | Binder |
| --- | --- |
| no binding | Aux/IAA9 (protein, UniProt Q38827 1-338) MSPEEELQSNVSVASSSPTSNCISRNTLGGLKEHNYLGLSDCSSVGSSTLSPLAEDDKATISLKATELTLGLPGSQSPARDTELNLLSPAKLDEKPFFPLLPSKDEICSSSQKNNASGNKRGFSDTMDQFAEAKSSVYTEKNWMFPEAAATQSVTKKDVPQNIPKGQSSTTNNSSSPPAAKAQIVGWPPVRSYRKNTLATTCKNSDEVDGRPGSGALFVKVSMDGAPYLRKVDLRSYTNYGELSSALEKMFTTFTLGQCGSNGAAGKDMLSETKLKDLLNGKDYVLTYEDKDGDWMLVGDVPWEMFIDVCKKLKIMKGCDAIGLAAAPRAMEKSKMRA |
| no binding | Aux/IAA8 (protein, UniProt Q38826 1-321) MSYRLLSVDKDELVTSPCLKERNYLGLSDCSSVDSSTIPNVVGKSNLNFKATELRLGLPESQSPERETDFGLLSPRTPDEKLLFPLLPSKDNGSATTGHKNVVSGNKRGFADTWDEFSGVKGSVRPGGGINMMLSPKVKDVSKSIQEERSHAKGGLNNAPAAKAQVVGWPPIRSYRKNTMASSTSKNTDEVDGKPGLGVLFVKVSMDGAPYLRKVDLRTYTSYQQLSSALEKMFSCFTLGQCGLHGAQGRERMSEIKLKDLLHGSEFVLTYEDKDGDWMLVGDVPWEIFTETCQKLKIMKGSDSIGLAPGAVEKSKNKERV |
